The record followed here is PubChem BioAssay AID2685 (National Center for Advancing Translational Sciences (NCATS), 2010).

The test can be described thus: qHTS Assay for Lipid Storage Modulators in Drosophila S3 Cells.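 For cell number change: cells counted by Cell Tracker Red CMTPX staining in the red channel.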 As to conditions: BODIPY lipid droplet fluorescence, 18-24 h; for cell number change: measured here: cell count max response, cells fed with added oleic acid. An outline of the steps: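 Laser-scanning cytometry quantifies lipid droplet accumulation (500–530 nm total intensity; droplet/cell object ratio) in oleic acid-fed (400 uM added) Drosophila S3 cells treated with a concentration series. 20 uM Triacsin C defined 100% inhibition.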
Background: Quantitative high-throughput screening tests each substance at several concentrations.

Setting [1] is: measured here: cell number channel AC50, cells fed with added oleic acid.
The mark [2] stands for this setting: measured here: lipid fluorescence (Fed channel) AC50, cells fed with added oleic acid.

The other results are listed elsewhere or left out. These are further read-outs of the screen, such as a control signal, another cell line or another target. No call is given for them. Compounds called inactive in the main read-out are mostly missing here. Words in brackets tell the shape of the fitted curve; partial curves, single points and poor fits give uncertain potencies.

Broadly, the AC50 is the concentration at which the activity in the assay is half-maximal. For the compound `CSCCC(NC(=O)c1ccccc1Cl)C(=O)NNC(=O)c1ccccc1O` (stereo not given), the cell number change was -25%. The concentration at half-maximal activity (AC50) under setting [1] was 3.66 µM [falling, single point].
In the case of `Clc1cccc(Cl)c1Cn1cnc(=NCc2ccco2)c2[nH]cnc21`, the cell number change is -16.6%.
Turning to `CCN1C(=O)/C(=C/N(C(C)=O)c2ccccc2)N(c2ccccc2)C1=S`, the cell number change is -0.161%. Further, the concentration at half-maximal activity (AC50) under setting [2] was 1.46 µM [falling, partial curve, poor fit].
Turning to `COc1ccc(NC(=O)C2CCCNC2)cc1OCC(C)C` (stereo not given), the cell number change amounted to 10.6%. For the same compound, under setting [2], the half-maximal activity concentration (AC50) is 5.8 µM [falling, single point].
For `O=C(CSc1nnc(SCc2ccc(Cl)cc2)s1)N/N=C/c1c(Cl)cccc1Cl`, the cell number change is 4.66%. Under setting [2], the AC50 was 1.16 µM [rising, single point].
`COc1cc(/C=N/NC(=O)CC2C(=O)NN=C2C)ccc1O` (stereo not given): the cell number change came to 27%. The AC50 under setting [2] is 29.1 µM [rising, single point].
For `CC(C)OC(=O)c1ccc(COc2ccc3ccc(=O)oc3c2)o1`, the cell number change stood at 26.6%. Further, under setting [2], the AC50 was 18.4 µM [rising, partial curve].
For the compound `O=S(=O)(Nc1ccc(Cl)nn1)c1ccccc1`, the AC50 is 0.00517 µM [falling, full curve, poor fit] under setting [1] and 0.82 µM [falling, partial curve] under setting [2].
Take `Cn1c(=O)c2c(ncn2CC(=O)N2CCN(C(=O)c3ccco3)CC2)n(C)c1=O`: the cell number change turned out to be 118%. Further, the concentration at half-maximal activity (AC50) under setting [1] is 4.61 µM [falling, single point]. In addition, the half-maximal activity concentration (AC50) under setting [2] is 6.51 µM [falling, single point].
With `Cc1cccc(N2CCN(C(=O)Cc3c(C(=O)O)[nH]c4ccc(Cl)cc34)CC2)c1C`, the cell number change was -16.2%. The concentration at half-maximal activity (AC50) under setting [2] is 18.4 µM [falling, single point].
`COc1ccccc1NC(=S)N=Nc1c(O)[nH]c2ccc(Br)cc12`: the cell number change was -8.35%. Besides, the AC50 under setting [2] is 0.0058 µM [falling, full curve, poor fit].
Regarding `COc1ccc2c3c(c(=O)oc2c1OCC(=O)O)CCCC3`, the AC50 under setting [2] was 0.82 µM [falling, full curve, poor fit].
For `N#CC1=C(N)N(c2ccccc2C#N)C2=C(C(=O)CCC2)C1c1ccsc1` (stereo not given), the cell number change was -21.4%. In addition, under setting [2], the AC50 is 0.92 µM [rising, full curve].
For the compound `Cc1ccc2c(CN3CCN(CCO)CC3)cc(=O)oc2c1C`, the cell number change is -19.2%. Also, under setting [1], the AC50 is 0.116 µM [falling, single point]. Also, the AC50 under setting [2] was 20.6 µM [falling, partial curve].
Take `O=C1C(=O)N(Cc2cccnc2)C(c2cccc(O)c2)/C1=C(\O)c1ccc2c(c1)OCCO2` (stereo not given): the cell number change is 9.68%. The AC50 under setting [2] was 0.731 µM [falling, full curve, poor fit].
In the case of `Cc1cc(C)n2nc(C(=O)NCc3ccccc3)nc2n1`, under setting [2], the AC50 is 0.58 µM [rising, single point].
On to `O=C(O)c1sccc1Oc1ccc(F)cc1[N+](=O)[O-]`, for which the cell number change turned out to be 7.23%. Moreover, the AC50 under setting [2] was 18.4 µM [falling, single point].
Consider `Cc1cccc2sc(N(CCCN(C)C)C(=O)c3ccc(Cl)s3)nc12`, for which the cell number change was -5.39%. Moreover, under setting [1], the concentration at half-maximal activity (AC50) is 0.461 µM [falling, single point]. Moreover, the AC50 under setting [2] is 0.206 µM [falling, full curve, poor fit].
With `CCCCN1C[C@H](C)[C@@H](CC(=O)NCc2ccccc2)C1=O`, the cell number change amounted to 26.3%. Moreover, under setting [2], the half-maximal activity concentration (AC50) was 29.1 µM [rising, single point].
`CC(C)C(=O)Nc1ccc2nn(-c3ccc(F)cc3)nc2c1`: the cell number change was determined as 1.54%. In addition, the concentration at half-maximal activity (AC50) under setting [2] is 29.1 µM [falling, single point].
Regarding `COc1ccc(CC(=O)OCC(=O)NC(=O)NC(C)C)cc1`, the cell number change was -82.3%. Further, the concentration at half-maximal activity (AC50) under setting [1] is 25.9 µM [falling, partial curve]. Besides, the half-maximal activity concentration (AC50) under setting [2] is 1.46 µM [falling, full curve, poor fit].
With `Cc1nn(-c2ccccc2)c(C)c1C(=O)OCC(=O)Nc1cccc(S(N)(=O)=O)c1`, the cell number change was 0.389%. Moreover, the half-maximal activity concentration (AC50) under setting [2] is 6.51 µM [falling, single point].
As for `Cc1oc(-c2cccs2)nc1CN1CC[C@@](O)(c2ccccc2)[C@H]2CCCC[C@@H]21`, the cell number change is -3.32%. Under setting [2], the AC50 is 0.82 µM [falling, full curve, poor fit].
`COc1ccc(-c2nc(-c3ccncc3)no2)c(OC)c1`: the cell number change was determined as 5.03%.
Turning to `O=C(O)C1CCCCN1C(=O)c1cc2c(s1)CCCCC2` (stereo not given), the cell number change is -14.8%. Under setting [1], the half-maximal activity concentration (AC50) is 0.103 µM [falling, full curve, poor fit]. Also, the concentration at half-maximal activity (AC50) under setting [2] was 0.13 µM [falling, full curve, poor fit].
`CCC(=O)N1CCCc2cc(S(=O)(=O)N3CCN(c4ccccn4)CC3)ccc21`: the cell number change is 3.79%. For the same compound, the AC50 under setting [2] is 11.6 µM [rising, partial curve].
`S=c1[nH]nc(COc2ccccc2)n1/N=C/C=C/c1ccccc1`: the cell number change was -44.3%. Moreover, the AC50 under setting [1] is 20.6 µM [falling, single point]. For the same compound, the half-maximal activity concentration (AC50) under setting [2] is 13 µM [falling, partial curve].
On to `O=C(NC1CCCCC1)C1CCN(c2ncccn2)CC1`, for which the cell number change is -10.3%.
For the compound `COc1ccc(-c2noc(N3CCC(C(=O)Nc4cc(OC)c(OC)c(OC)c4)CC3)n2)cc1`, under setting [2], the AC50 is 6.51 µM [rising, single point].
In the case of `CCCCN(C)C/C(O)=C(\C#N)c1nc(-c2ccccc2)cs1`, the cell number change is -15.6%. Further, the AC50 under setting [1] was 0.0058 µM [falling, full curve, poor fit]. The AC50 under setting [2] was 6.51 µM [falling, single point].
As for `COc1cccc(CNC(=O)CCc2nnc(C3CCCCC3)o2)c1`, the cell number change was -18.6%. Also, the half-maximal activity concentration (AC50) under setting [2] was 1.64 µM [falling, full curve, poor fit].
Take `O=C(Nc1cccc(Br)c1)c1cc(S(=O)(=O)N2CCOCC2)cs1`: the AC50 by setting is: under setting [1], 2.31 µM [rising, partial curve]; under setting [2], 29.1 µM [falling, single point].
In the case of `CCc1cc2c(cc3c(=O)n(CC(=O)NCCCN4CC(C)CC(C)C4)ncn32)s1` (stereo not given), the cell number change is -60.8%. Moreover, the half-maximal activity concentration (AC50) under setting [1] is 6.51 µM [falling, partial curve, poor fit]. Further, under setting [2], the half-maximal activity concentration (AC50) was 7.31 µM [falling, partial curve, poor fit].
Take `COC(=O)C1(C)NC(c2cccc(C)c2)C2C(=O)N(c3ccc(F)cc3)C(=O)C21` (stereo not given): the cell number change was 20.7%. Besides, the AC50 under setting [1] is 0.00517 µM [rising, full curve, poor fit]. Under setting [2], the concentration at half-maximal activity (AC50) is 0.146 µM [rising, full curve, poor fit].
Consider `COc1ccc(CCN2CCCC(CN(C)C(=O)c3ccoc3C)C2)cc1` (stereo not given), for which the cell number change was found to be 51.1%. The AC50 under setting [1] is 20.6 µM [rising, partial curve, poor fit]. Further, the AC50 under setting [2] is 5.17 µM [rising, full curve].
As to `Cc1c(NS(=O)(=O)c2ccc3c(c2)NC(=O)CC(=O)N3)cccc1[N+](=O)[O-]`, the cell number change is -11.8%.
Same read-out and setting: as for `Cc1cc(C)c(S(C)(=O)=O)c(Oc2cccc(Cl)c2)n1`, the figure is 39%; as for `O=C(Nc1cccc(Cl)c1)c1ccc(S(=O)(=O)NCC2CCCO2)cc1` (stereo not given), 18.4%.
On to `COc1ccc(S(=O)(=O)N2CCOCC2)cc1NC(=O)CC1CC2CCC1C2` (stereo not given), for which the cell number change was 21.1%. Further, the concentration at half-maximal activity (AC50) under setting [2] is 1.64 µM [rising, full curve].
On to `Cc1cccc2c(C(=O)Nn3cnnc3)cc(-c3ccccc3Cl)nc12`, for which the cell number change was 121%. In addition, the AC50 under setting [1] was 29.1 µM [rising, single point]. Under setting [2], the half-maximal activity concentration (AC50) was 29.1 µM [rising, single point].
Take `Cc1cc(NC(=O)CSc2nnc(-c3cccnc3)n2C)no1`: the cell number change is 35%. Besides, the AC50 under setting [1] was 14.6 µM [rising, single point].
Consider `CCc1cc(=O)oc2c(C)c(OCC(=O)NCCCn3ccnc3)ccc12`, for which the cell number change worked out at 23.5%. The AC50 under setting [1] is 0.0731 µM [rising, full curve, poor fit].
For the compound `COc1nnc(-c2ccc(N3CCCCC3)c(NC(C)=O)c2)c2ccccc12`, under setting [2], the AC50 is 14.6 µM [rising, partial curve].
For the compound `CC1=CC(c2ccc(Cl)cc2)n2nc(NS(=O)(=O)c3ccc(C)cc3)nc2N1` (stereo not given), the cell number change amounted to 9.57%. For the same compound, under setting [2], the half-maximal activity concentration (AC50) was 2.31 µM [rising, single point].
With `O=C(Nc1ccc(Oc2cccnc2)cc1)c1ccc([N+](=O)[O-])cc1`, the cell number change worked out at 74.3%. The AC50 under setting [1] is 29.1 µM [rising, single point]. Moreover, the AC50 under setting [2] is 0.58 µM [rising, single point].
In the case of `COc1cccc(C(=O)c2c[nH]c(C(=O)NCCCN(C)C)c2)c1`, the cell number change turned out to be 34%.
For `CC(C)c1onc(C(=O)NCc2cccs2)c1[N+](=O)[O-]`, the cell number change is -36.5%. Under setting [1], the AC50 is 20.6 µM [falling, single point]. Also, under setting [2], the AC50 is 23.1 µM [falling, single point].
For `Oc1ccc(Cl)cc1CNc1ccc(Br)cn1`, the cell number change is -74.4%. The AC50 under setting [1] was 16.4 µM [falling, partial curve]. Also, the AC50 under setting [2] was 0.0651 µM [falling, full curve].
Take `CCCN(CCC)S(=O)(=O)c1ccc(C(=O)N2CCOCC2)cc1`: the cell number change amounted to 6.06%. Also, under setting [1], the AC50 was 1.3 µM [falling, full curve].
`Cc1nccc(-c2cccc(N/N=C(\C#N)C(=O)c3ccccc3)c2)n1`: the cell number change amounted to 37.3%. Further, the concentration at half-maximal activity (AC50) under setting [1] is 29.1 µM [rising, single point]. In addition, the half-maximal activity concentration (AC50) under setting [2] was 29.1 µM [rising, single point].
On to `O=C(CSc1ccccc1)Nc1ccccc1C(=O)O`, for which the cell number change was determined as 18.5%. Besides, under setting [1], the concentration at half-maximal activity (AC50) is 0.731 µM [falling, full curve, poor fit]. Moreover, the concentration at half-maximal activity (AC50) under setting [2] is 16.4 µM [falling, partial curve].
Regarding `COc1cc2cc(C(=O)N3CCN(Cc4ccc5c(c4)OCO5)CC3)[nH]c2cc1OC`, the cell number change is -6.12%. The AC50 under setting [2] was 16.4 µM [rising, single point].
In the case of `Cn1nc(C(F)(F)F)c(-c2ccc(Br)cc2)c1NC(=O)c1nccnc1C(=O)O`, the cell number change was 7.2%. In addition, under setting [2], the AC50 is 29.1 µM [falling, single point].
Turning to `O=C(NCc1ccccn1)c1cccc(S(=O)(=O)Nc2ccccc2Cl)c1`, the cell number change came out at 0.13%.
Consider `COc1ccc(NS(=O)(=O)c2ccc(C)c(C(=O)O)c2)cc1`, for which the AC50 under setting [2] is 18.4 µM [falling, partial curve].
With `CCc1ccccc1NC(=O)C1NC(=O)CC1c1ccccc1` (stereo not given), the cell number change is 10.3%. Also, the concentration at half-maximal activity (AC50) under setting [1] was 0.517 µM [rising, partial curve].
